From ChEMBL document CHEMBL3988442, “University of Dundee, Small-Polar-MMV Screening Library” (2021).

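Viability assay of Plasmodium falciparum sporozoites; the read-out is not stated. The concentration is filed as 10 mM, unlikely as a test dose, so the dose is not known. Higher reads as lower viability (inferred: compounds with an IC50 in retests scored well above the rest). Strong results were mostly tested again. Size under these conditions: about 34,000 compounds, about 280 of them at 50% or above in at least one test.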

Values are the deposited “Percent Effect”, in %.
The controls that fix the scale are not given in the record; negative values are as filed.
Compounds were drawn at random from those tested, without regard to their results.
Two or more numbers in one place are separate tests of the same structure; such repeats can differ widely.

Result for Cc1cc(NC(=O)CN2CCN(c3nccs3)C(C)C2)no1 (configuration not stated) was 3.468%. For C[C@@H]1CN(Cc2ccncc2)C[C@]1(C)O the result was -0.09158%. With Cc1nc(CSCCC(=O)NCc2cccnc2N(C)C)cs1 the screen gave 7.155%. For CC(C)Nc1nc2c(s1)C(=O)CN(C(=O)NCc1ccccc1)C2 the result was -5.504%.

With COCCN1CCN(CC(=O)N(C)Cc2ccccc2)CC1C (configuration not stated) the screen gave 2.842%. CN(CC(=O)Nc1cccnc1)C1CCCN(c2cccnn2)C1 (configuration not stated) read 21.72%. COC1CCN(C(=O)Cc2csc(-c3ccccc3)n2)CC1 read 6.786%. Cc1cc(CN2CCCC2c2c(C)nn(C)c2Cl)on1 (configuration not stated) gave -7.092%.

[H][C@]12CN(C(=O)c3ccc4c(c3)CCCC4)C[C@]1([H])N(C)C(=O)CO2 gave 5.513%. For Cl.Cl.c1cnc(NCc2cncc3c2CCN(CC2CC2)C3)nc1 the result was 12.24%. Result for CC(=O)N1CCN(c2cc(C3CN(C)CCO3)nc(C)n2)CC1 (configuration not stated) was -9.834%. Result for O=C(c1ccoc1)N1CCC2(CC1)C(=O)N(CC1CC1)c1ccccc12 was 9.545%.

With CC(C)CN(c1cn[nH]c1)S(=O)(=O)c1cccc(C#N)c1 the screen gave -10.21%. O=C(CN1CCCC(Cn2cncn2)C1)NCc1ccccc1F (configuration not stated) gave 3.681%. CN1CC(c2ccccc2)CC12CCN(C(=O)c1ccc(F)cc1)CC2 (configuration not stated) gave -0.7277%. For CCCn1nccc1NC(=O)c1ccc(Cl)c(N2CCNC2=O)c1 the result was -14.54%.

For Cc1ccc2nc(CN3CCCCC3CCN3CCOCC3)cn2c1 (configuration not stated) the result was 2.328%. Cc1nc2ccc(C(=O)N3CCn4c(nnc4C4CC4)C3)cc2nc1C gave 11.88%. With COc1ccc2c(c1)C1(CCN(Cc3ccncc3)CC1)N(C)CC2 the screen gave -6.369%. Result for Cc1oncc1C(=O)NCc1ccnc(OCC(F)(F)F)c1 was 0.3641%.

CC(C)Cc1ncc2c(n1)CN(c1cc(NCCO)nc(N)n1)C2 read 4.239%. For Cn1ncnc1NCc1ccc(Br)cc1 the result was -5.73%. Result for O=C(O)C(F)(F)F.c1cnc(NCc2nnn3c2CN(CC2CC2)CCC3)nc1 was -0.1733%. COC(=O)c1cccc(C2CNCCN2C)c1 (configuration not stated) read 1.36%.

c1cnc(OCc2nnc3n2CCN(CC2CC2)C3)nc1 gave -9.508%. Result for O=C(O)C(F)(F)F.O=C(O)C(F)(F)F.O=C(c1ccsc1)N1CCOC2(CCN(Cc3cccnc3)CC2)C1 was -10.93%. Cc1cc(F)cc2c(N3CCC(S(N)(=O)=O)CC3)c(C#N)cnc12 read -3.52%. O=C(CCN1CCc2ccccc21)N1C[C@@H](O)[C@H](N2CCOCC2)C1 gave 2.088%.

Result for OCC1CCCN1c1cc(NCCc2nccs2)ncn1 (configuration not stated) was 21.04% & 15.76%. With NC(=O)CC1CCN(C(=O)NCc2ccc(-c3ccn[nH]3)cc2)CC1 the screen gave 2.866%. NC(=O)c1cccc(CC2CCN(C(=O)Cn3cnnn3)C2)c1 (configuration not stated) gave -12.37%. For N#Cc1ccc(S(=O)(=O)NC(=O)c2csc(-c3ccco3)n2)cc1 the result was -15.51%.

O=C(O)C(F)(F)F.O=C(O)C(F)(F)F.O[C@H]1CCN(Cc2ccoc2)[C@H]1Cc1cccnc1 gave 10.5%. Result for c1cnn(CC2CCCN2c2ncnc3ccsc23)c1 (configuration not stated) was -8.772%. CN(C)c1nccc(C2CCCN2S(=O)(=O)c2cn(C)cn2)n1 (configuration not stated) read 5.142%. With COc1cccc2c1ccn2CC(=O)N1CCCC(C(=O)O)C1 (configuration not stated) the screen gave -8.084%.

Cc1nc(C2CCCN(C(=O)CCCn3cccn3)C2)sc1C (configuration not stated) read -6.239%. Result for Cn1cc(C(=O)CC2CCCN2C(=O)c2coc3ccccc23)cn1 (configuration not stated) was 3.663%. OC(COc1ccc(F)cc1)CN1CCC(c2ccn[nH]2)CC1 (configuration not stated) gave 3.385%. O=C(O)C(F)(F)F.c1ccc(CN2CCC3(CC2)CC(Nc2nccs2)CO3)nc1 (configuration not stated) gave -3.179%.

Result for O=C(O)C(F)(F)F.c1cnc(N2CCOCC3(C2)CN(c2nccs2)CCO3)nc1 (configuration not stated) was -0.08518%. For CCN(CC)CCNc1c(-c2ccccc2)c(=O)c1=O the result was 0.08953%. With CC(C)CN1Cc2c(C(=O)NC3CC3)ncn2-c2ccccc2S1(=O)=O the screen gave 9.091%. With CCc1ccc(C(=O)N2CCN(CCS(C)(=O)=O)CC2)o1 the screen gave 4.617%.

For COCCCN1Cc2cccc(NC(=O)c3cc(F)ccc3F)c2C1 the result was -16.44% & 4.657% & -15.3%. With Cc1nc(N)nc(C)c1CC(=O)NCc1ccc2nonc2c1 the screen gave 1.228%. For O=C(O)C(F)(F)F.[H][C@@]12CCN(C(=O)C(C)C)CC[C@]1(C(=O)N1CCOCC1)CCN2CC the result was 20.75%. For Cc1cc(C)n(Cc2ccc(C(=O)NCCN3CCOCC3)cc2)n1 the result was -11.42%.

O=C(Cn1ccc(=O)c2ccccc21)Nc1cnccc1O read -11.43%. N#Cc1cn(C2CC2)c(=O)n(CC(O)c2ccc(F)cc2)c1=O (configuration not stated) read 10.51%. CS(=O)(=O)NC1CCCN(C(=O)COCc2ccccc2)C1 (configuration not stated) gave 9.272%. Result for COc1ccc(COCC(O)CNC(=O)c2cc(C)oc2C)cc1 (configuration not stated) was 8.883%.

For CS(=O)(=O)c1cncnc1C1CCCN(C(=O)Nc2ccccc2F)C1 (configuration not stated) the result was -17.65%. Result for CSc1ccc(C)c(C(=O)N2CCCC(n3cncn3)C2)c1 (configuration not stated) was -7.495%.

The last 3 entries again:

- COc1ccc(COCC(O)CNC(=O)c2cc(C)oc2C)cc1 (configuration not stated) : 8.883%
- CS(=O)(=O)c1cncnc1C1CCCN(C(=O)Nc2ccccc2F)C1 (configuration not stated) : -17.65%
- CSc1ccc(C)c(C(=O)N2CCCC(n3cncn3)C2)c1 (configuration not stated) : -7.495%